Among the data in PMC10951364 are binding values, retold here.

Amino acid sequences for entries named in this document (tags omitted).
UniProt Q7Z6E9: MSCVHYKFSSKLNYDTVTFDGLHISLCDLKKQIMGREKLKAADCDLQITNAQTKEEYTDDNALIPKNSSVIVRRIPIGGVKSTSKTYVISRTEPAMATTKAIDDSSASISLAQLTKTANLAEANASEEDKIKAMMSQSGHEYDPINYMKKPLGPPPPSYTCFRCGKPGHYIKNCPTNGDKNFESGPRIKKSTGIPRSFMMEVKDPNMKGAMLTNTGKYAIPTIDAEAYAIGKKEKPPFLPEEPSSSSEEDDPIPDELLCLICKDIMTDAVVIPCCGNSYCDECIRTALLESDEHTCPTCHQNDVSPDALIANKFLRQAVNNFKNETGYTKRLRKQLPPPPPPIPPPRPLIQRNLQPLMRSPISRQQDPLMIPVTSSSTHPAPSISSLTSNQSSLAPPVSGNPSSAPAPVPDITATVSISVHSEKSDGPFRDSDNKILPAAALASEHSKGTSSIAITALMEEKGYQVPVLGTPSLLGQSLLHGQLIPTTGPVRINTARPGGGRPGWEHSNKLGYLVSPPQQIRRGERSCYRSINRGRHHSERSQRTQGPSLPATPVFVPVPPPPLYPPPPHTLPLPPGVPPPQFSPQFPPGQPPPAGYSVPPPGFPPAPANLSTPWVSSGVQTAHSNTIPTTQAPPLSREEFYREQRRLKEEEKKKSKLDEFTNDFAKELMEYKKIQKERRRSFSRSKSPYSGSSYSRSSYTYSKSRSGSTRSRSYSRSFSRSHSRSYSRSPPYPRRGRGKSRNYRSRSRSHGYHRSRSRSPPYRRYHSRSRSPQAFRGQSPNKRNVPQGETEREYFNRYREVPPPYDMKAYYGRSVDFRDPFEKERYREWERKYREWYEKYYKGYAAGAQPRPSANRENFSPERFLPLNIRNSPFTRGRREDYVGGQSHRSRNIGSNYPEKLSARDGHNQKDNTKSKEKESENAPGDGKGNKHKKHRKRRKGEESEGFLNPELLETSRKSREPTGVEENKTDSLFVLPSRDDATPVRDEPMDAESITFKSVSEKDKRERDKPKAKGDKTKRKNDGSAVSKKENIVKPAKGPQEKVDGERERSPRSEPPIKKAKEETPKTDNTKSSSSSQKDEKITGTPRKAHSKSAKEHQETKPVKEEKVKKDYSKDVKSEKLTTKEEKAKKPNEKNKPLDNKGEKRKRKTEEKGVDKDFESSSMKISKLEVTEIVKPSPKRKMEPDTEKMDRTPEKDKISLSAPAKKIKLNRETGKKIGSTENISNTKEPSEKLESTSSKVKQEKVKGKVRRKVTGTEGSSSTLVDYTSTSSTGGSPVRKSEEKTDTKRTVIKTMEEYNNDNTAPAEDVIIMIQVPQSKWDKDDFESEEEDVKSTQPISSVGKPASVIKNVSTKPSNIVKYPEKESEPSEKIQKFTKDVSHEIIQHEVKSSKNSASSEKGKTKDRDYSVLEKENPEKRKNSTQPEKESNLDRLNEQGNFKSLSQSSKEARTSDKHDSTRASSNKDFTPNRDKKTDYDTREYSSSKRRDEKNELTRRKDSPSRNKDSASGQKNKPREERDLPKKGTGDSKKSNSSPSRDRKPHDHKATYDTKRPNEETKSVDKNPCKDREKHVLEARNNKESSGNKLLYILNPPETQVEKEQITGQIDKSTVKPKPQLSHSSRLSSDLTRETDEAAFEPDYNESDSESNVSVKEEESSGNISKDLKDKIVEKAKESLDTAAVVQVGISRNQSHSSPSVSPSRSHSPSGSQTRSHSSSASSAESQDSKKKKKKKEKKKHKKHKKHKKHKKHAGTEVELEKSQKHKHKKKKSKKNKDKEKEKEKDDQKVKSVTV

In this assay the target is RB Binding Protein 6, Ubiquitin Ligase (RBBP6), HA-tagged (human) (UniProt Q7Z6E9). In words: co-IP; HEK293T cells transfected with HA-RBBP6 for 48 h; NP-40 lysis buffer; one milligram of protein with anti-HA beads for 1 h at room temperature; beads washed five times with lysis buffer; immunoblotting. A general note: Immunoblotting shows a protein as a band on a membrane.

These are yes or no findings as the source states them, for the method shown. Binding seen in cells or lysates may run through a third protein. Some results given as binding are weak or reduced against the parent protein; the word gives no strength.

B1: CSTF2 (protein, UniProt P33240 1-577)
chain: MAGLTVRDPAVDRSLRSVFVGNIPYEATEEQLKDIFSEVGPVVSFRLVYDRETGKPKGYGFCEYQDQETALSAMRNLNGREFSGRALRVDNAASEKNKEELKSLGTGAPVIESPYGETISPEDAPESISKAVASLPPEQMFELMKQMKLCVQNSPQEARNMLLQNPQLAYALLQAQVVMRIVDPEIALKILHRQTNIPTLIAGNPQPVHGAGPGSGSNVSMNQQNPQAPQAQSLGGMHVNGAPPLMQASMQGGVPAPGQMPAAVTGPGPGSLAPGGGMQAQVGMPGSGPVSMERGQVPMQDPRAAMQRGSLPANVPTPRGLLGDAPNDPRGGTLLSVTGEVEPRGYLGPPHQGPPMHHVPGHESRGPPPHELRGGPLPEPRPLMAEPRGPMLDQRGPPLDGRGGRDPRGIDARGMEARAMEARGLDARGLEARAMEARAMEARAMEARAMEARAMEVRGMEARGMDTRGPVPGPRGPIPSGMQGPSPINMGAVVPQGSRQVPVMQGTGMQGASIQGGSQPGGFSPGQNQVTPQDHEKAALIMQVLQLTADQIAMLPPEQRQSILILKEQIQKSTGAP
Consider B1, for which the binding entry was “binds”.

B2: CPSF2 (protein, UniProt Q9P2I0 1-782)
chain: MTSIIKLTTLSGVQEESALCYLLQVDEFRFLLDCGWDEHFSMDIIDSLRKHVHQIDAVLLSHPDPLHLGALPYAVGKLGLNCAIYATIPVYKMGQMFMYDLYQSRHNTEDFTLFTLDDVDAAFDKIQQLKFSQIVNLKGKGHGLSITPLPAGHMIGGTIWKIVKDGEEEIVYAVDFNHKREIHLNGCSLEMLSRPSLLITDSFNATYVQPRRKQRDEQLLTNVLETLRGDGNVLIAVDTAGRVLELAQLLDQIWRTKDAGLGVYSLALLNNVSYNVVEFSKSQVEWMSDKLMRCFEDKRNNPFQFRHLSLCHGLSDLARVPSPKVVLASQPDLECGFSRDLFIQWCQDPKNSIILTYRTTPGTLARFLIDNPSEKITEIELRKRVKLEGKELEEYLEKEKLKKEAAKKLEQSKEADIDSSDESDIEEDIDQPSAHKTKHDLMMKGEGSRKGSFFKQAKKSYPMFPAPEERIKWDEYGEIIKPEDFLVPELQATEEEKSKLESGLTNGDEPMDQDLSDVPTKCISTTESIEIKARVTYIDYEGRSDGDSIKKIINQMKPRQLIIVHGPPEASQDLAECCRAFGGKDIKVYMPKLHETVDATSETHIYQVRLKDSLVSSLQFCKAKDAELAWIDGVLDMRVSKVDTGVILEEGELKDDGEDSEMQVEAPSDSSVIAQQKAMKSLFGDDEKETGEESEIIPTLEPLPPHEVPGHQSVFMNEPRLSDFKQVLLREGIQAEFVGGVLVCNNQVAVRRTETGRIGLEGCLCQDFYRIRDLLYEQYAIV
As to B2, the binding result is recorded as “binds”.

B3: Cleavage and Polyadenylation Specific Factor 3 (CPSF3) (protein, UniProt Q9UKF6 1-684)
chain: MSAIPAEESDQLLIRPLGAGQEVGRSCIILEFKGRKIMLDCGIHPGLEGMDALPYIDLIDPAEIDLLLISHFHLDHCGALPWFLQKTSFKGRTFMTHATKAIYRWLLSDYVKVSNISADDMLYTETDLEESMDKIETINFHEVKEVAGIKFWCYHAGHVLGAAMFMIEIAGVKLLYTGDFSRQEDRHLMAAEIPNIKPDILIIESTYGTHIHEKREEREARFCNTVHDIVNRGGRGLIPVFALGRAQELLLILDEYWQNHPELHDIPIYYASSLAKKCMAVYQTYVNAMNDKIRKQININNPFVFKHISNLKSMDHFDDIGPSVVMASPGMMQSGLSRELFESWCTDKRNGVIIAGYCVEGTLAKHIMSEPEEITTMSGQKLPLKMSVDYISFSAHTDYQQTSEFIRALKPPHVILVHGEQNEMARLKAALIREYEDNDEVHIEVHNPRNTEAVTLNFRGEKLAKVMGFLADKKPEQGQRVSGILVKRNFNYHILSPCDLSNYTDLAMSTVKQTQAIPYTGPFNLLCYQLQKLTGDVEELEIQEKPALKVFKNITVIQEPGMVVLEWLANPSNDMYADTVTTVILEVQSNPKIRKGAVQKVSKKLEMHVYSKRLEIMLQDIFGEDCVSVKDDSILSVTVDGKTANLNLETRTVECEEGSEDDESLREMVELAAQRLYEALTPVH
As to B3, the binding result is listed as “binds”.
